Drawing on PubChem BioAssay AID445 (National Center for Advancing Translational Sciences (NCATS), 2006), this text covers AC50 for 59 molecules.

Broadly, the AC50 is the midpoint of the concentration-response curve, whichever way the signal moves.

The other results are listed elsewhere or left out. The main result of the screen is listed elsewhere. These columns were measured beside it and carry no call. Compounds called inactive in the main read-out are mostly missing here. Potencies come from curve fits of mixed quality, noted in brackets.

The experiment can be described thus: IkB Signaling. The note with it: ABC-DLBCL IkBa-CBG/CBR dual luciferase ratio (green luciferase fused to IkBa over red control in OCI-Ly3 lymphoma cells), 4 h. Summed up:
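Curves were fitted separately to fusion (green), unfused (red) and ratio luminescence, then classed by r2, magnitude and activity. Cells: OCI-Ly3, 4 h compound plus doxycycline at 37C; 10 uM MG-132 defined full response.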

The mark [1] stands for this setting: measured here: control luc red channel unless noted.

On to `CCOc1ccc(NC(=O)CC2C(=O)N(c3ccccc3)C(=O)N2CCc2cccs2)cc1` (stereo not given), for which the half-maximal activity concentration (AC50) under setting [1] is 12.6 µM [falling, partial curve].

Regarding `Cc1cccc(NC(=O)c2ccccc2O)c1C`, under setting [1], the AC50 was 39.8 µM [falling, single point].

With `Cc1ccc(CCNC(=O)c2sc3ncccc3c2-n2c(C)ccc2C)cc1`, under setting [1], the AC50 is 20 µM [falling, partial curve].

Consider `CCC(=O)Nc1ccc(CC)cc1-c1nc2ccccc2n(CC(=O)Nc2cccc(OC)c2)c1=O`, for which the AC50 under setting [1] is 15.8 µM [falling, single point].

With `COc1cccc(C2=CC(c3ccccc3F)n3ncc(C(=O)Nc4ccc(C)cc4)c3N2)c1` (stereo not given), the AC50 under setting [1] was 31.6 µM [falling, partial curve].

For `COc1ccc(-c2nc(CS(=O)CC(=O)NCCc3ccccc3)c(C)o2)cc1OC` (stereo not given), the half-maximal activity concentration (AC50) under setting [1] was 7.94 µM [rising, full curve].

On to `Cc1cc(N2CCN(C)CC2)nc2ccc(NC(=O)c3ccc(C(C)(C)C)cc3)cc12`, for which the concentration at half-maximal activity (AC50) under setting [1] is 39.8 µM [falling, single point].

Regarding `Cc1ccc(C(=O)n2nc(C)c(S(=O)(=O)N3CCCCCC3)c2C)cc1C`, under setting [1], the AC50 was 31.6 µM [falling, single point].

For the molecule `COc1ccccc1NC(=O)CSc1nc(O)c(C/C=C/c2ccccc2)c(=O)[nH]1`, the half-maximal activity concentration (AC50) under setting [1] was 25.1 µM [falling, partial curve].

For `COc1ccc(CNC(=O)c2nc(SCc3ccc(C)cc3)ncc2Cl)cc1`, the half-maximal activity concentration (AC50) under setting [1] is 6.31 µM [rising, single point].

On to `O=C(O)CCC(=O)Nc1ccc2c(c1)oc1ccccc12`, for which the AC50 under setting [1] is 0.00316 µM [falling, full curve].

Consider `CCOc1cccc2sc(N3CCN(C(=O)c4ccc5c(c4)CCCC5)CC3)nc12`, for which the half-maximal activity concentration (AC50) under setting [1] was 31.6 µM [falling, partial curve].

Regarding `CC(C)C(NS(=O)(=O)c1ccc2c(c1)oc(=O)n2C)C(=O)N1CCN(c2cccc(Cl)c2)CC1` (stereo not given), under setting [1], the AC50 was 39.8 µM [falling, single point].

Turning to `CCN(CC)C(=O)c1ccc2c(c1)N(Cc1c(F)cccc1Cl)C(=O)c1ccccc1S2`, the AC50 under setting [1] is 25.1 µM [falling, single point].

On to `Cc1ccn2c(Nc3c(C)cccc3C)c(-c3ccsc3)nc2c1`, for which the half-maximal activity concentration (AC50) under setting [1] is 15.8 µM [falling, partial curve].

In the case of `O=C(CSc1nc(=O)[nH]c2c1CCCC2)Nc1ccc(Cl)c(Cl)c1`, the half-maximal activity concentration (AC50) under setting [1] is 39.8 µM [falling, single point].

For the molecule `Cc1cccc(NC(=O)Cn2cc(C(=O)c3ccco3)c3ccccc32)c1C`, the concentration at half-maximal activity (AC50) under setting [1] is 31.6 µM [falling, partial curve].

On to `Cc1nn(CC(=O)NCc2ccc(OC(C)C)cc2)c(=O)c2c(C)n(-c3ccc(Cl)cc3)nc12`, for which the half-maximal activity concentration (AC50) under setting [1] is 25.1 µM [falling, partial curve].

For `COc1ccc(CN2C(=O)C(NC(=O)c3ccccc3C)(C(F)(F)F)N=C2c2ccccc2)cc1` (stereo not given), under setting [1], the AC50 is 31.6 µM [falling, partial curve].

For the molecule `Cc1ccc2oc(-c3ccc(Cl)c(NC(=O)c4ccc(-c5ccccc5[N+](=O)[O-])o4)c3)nc2c1`, under setting [1], the AC50 was 12.6 µM [falling, partial curve].

As to `O=C(Nc1ccc(F)cc1F)c1noc2c1CCc1ccccc1-2`, the half-maximal activity concentration (AC50) under setting [1] was 0.0126 µM [falling, full curve].

For `COC(=O)c1ccccc1NC(=O)Cc1noc2ccc(C)cc12`, the AC50 under setting [1] is 39.8 µM [falling, single point].

As for `COCCn1c(=O)c(-c2cccc(C#N)c2)nc2cnc(Nc3ccccc3)nc21`, under setting [1], the AC50 is 5.01 µM [falling, partial curve] [measured here: IkB-luc green channel].

As for `CCc1ccc(NC(=O)CC2C(=O)N(c3ccccc3)C(=O)N2C(C)C)cc1` (stereo not given), the AC50 under setting [1] is 3.98 µM [rising, partial curve].

For `COc1ccc(Br)cc1CNC(=O)CN1CCSc2ccccc21`, the half-maximal activity concentration (AC50) under setting [1] was 20 µM [falling, partial curve].

On to `CCCCc1nnc(NC(=O)CSc2nc(=O)cc(N)n2-c2ccccc2)s1`, for which the AC50 under setting [1] is 15.8 µM [falling, partial curve].

For the molecule `CN1CC(=O)NC1=NC(=O)C12CC3CC(CC(C3)C1)C2`, the concentration at half-maximal activity (AC50) under setting [1] is 39.8 µM [rising, single point] [measured here: IkB-luc green channel].

As to `O=C(Nc1ccc(Cl)c(Cl)c1)N1CCC(c2ccccc2)C1` (stereo not given), the concentration at half-maximal activity (AC50) under setting [1] is 0.0398 µM [falling, full curve].

Consider `Cc1cccn2c(=O)cc(COc3cccc(NC(=O)c4ccccc4F)c3)nc12`, for which the half-maximal activity concentration (AC50) under setting [1] was 2.51 µM [falling, full curve].

For the molecule `CC(=O)O[C@@H]1C(=O)[C@@]2(C)[C@H](O)C[C@H]3OC[C@]3(OC(C)=O)[C@@H]2[C@H](OC(=O)c2ccccc2)[C@@]2(O)C[C@H](OC(=O)[C@@H](O)[C@@H](NC(=O)c3ccccc3)c3ccccc3)C(C)=C1C2(C)C` (stereo in doubt), the AC50 under setting [1] was 20 nM [rising, full curve, poor fit] [measured here: IkB-luc green channel].

Regarding `Cn1c(C(=O)N2CCCC(C(=O)NCCCc3ccccc3)C2)cc2sccc21` (stereo not given), the half-maximal activity concentration (AC50) under setting [1] is 15.8 µM [falling, partial curve].

Consider `Cc1ccc(-c2nc(SCC(=O)NCC3CCCO3)c(-c3ccc(C)cc3)[nH]2)cc1` (stereo not given), for which, under setting [1], the AC50 is 15.8 µM [falling, partial curve].

In the case of `NC1=C(c2ccc(F)cc2)C(=O)CS1`, the AC50 under setting [1] is 0.501 µM [falling, full curve].

Regarding `COc1ccc(C)cc1NC(=O)c1ccc2c(Cl)c3c(nc2c1)CCC3`, the AC50 under setting [1] is 1.58 µM [falling, full curve].

In the case of `Cn1nc(C(=O)N2CCN(c3ccccc3)CC2)c2c1-c1ccccc1S(=O)(=O)C2`, the half-maximal activity concentration (AC50) under setting [1] is 39.8 µM [falling, single point].

For the molecule `CCOC(=O)N1CCN(C(=O)c2ccc(Cn3c(=S)[nH]c4cc5c(cc4c3=O)OCO5)cc2)CC1`, the half-maximal activity concentration (AC50) under setting [1] is 3.16 µM [falling, full curve].

Consider `COc1ccc(S(=O)(=O)c2c(SC)nn(Cc3ccccc3C)c2NC(C)=O)cc1`, for which, under setting [1], the concentration at half-maximal activity (AC50) was 25.1 µM [falling, single point].

Regarding `O=C(CSc1nc2c([nH]c3ccccc32)c(=O)n1-c1ccccc1)N1CCCC1`, under setting [1], the AC50 was 1.26 µM [rising, full curve, poor fit].

For the molecule `Cc1ccc(C)c(S(=O)(=O)N2CCC(c3nc4c(nnn4Cc4ccc(F)cc4)c(=O)[nH]3)CC2)c1`, the concentration at half-maximal activity (AC50) under setting [1] was 20 µM [falling, partial curve].

As to `Cc1ccc(OCC(=O)Nc2ccc3nn(-c4ccc(Cl)cc4)nc3c2)cc1`, the AC50 under setting [1] was 0.0631 µM [rising, full curve, poor fit].

Turning to `CCOC(=O)c1cccc(Nc2ccc3cc(S(=O)(=O)N4CCCCC4)ccc3n2)c1`, the AC50 under setting [1] is 5.01 µM [rising, partial curve].

As to `O=c1c2oc3ccccc3c2n(Cc2ccccc2)c(=O)n1Cc1ccc2c(c1)OCO2`, under setting [1], the half-maximal activity concentration (AC50) is 1 µM [falling, partial curve].

For `Cc1ccc(C)c(NC(=O)Cn2c(=O)n(CCC(=O)NCc3ccc4c(c3)OCO4)c(=O)c3ccccc32)c1`, under setting [1], the concentration at half-maximal activity (AC50) is 2 µM [rising, full curve, poor fit].

Take `CCOC(=O)C1CCCN(C(=O)c2ccc3c(c2)N(Cc2ccccc2)C(=O)c2ccccc2S3=O)C1` (stereo not given): the concentration at half-maximal activity (AC50) under setting [1] was 39.8 µM [falling, single point].

As for `CCCC(=O)N1c2nc(C(C)C)nn2C2(CCCCC2)[C@@H]2CCCC[C@@H]21`, the half-maximal activity concentration (AC50) under setting [1] was 15.8 µM [falling, partial curve].

Turning to `COc1cccc(NS(=O)(=O)c2ccc3[nH]cc(C(=O)N(C)C4CCCCC4)c(=O)c3c2)c1`, the AC50 under setting [1] is 12.6 µM [falling, partial curve, poor fit].

Turning to `O=C(c1cc(-c2cccc(O)c2)on1)N1CCc2ccccc2C1`, the concentration at half-maximal activity (AC50) reads like this: (measured here: IkB-luc green channel) 25.1 µM [falling, partial curve]; (measured here: control luc red channel) 12.6 µM [falling, partial curve].

For `COc1cccc(CNC(=O)c2ccc(NC(=O)N3CCCCc4ccccc43)cc2)c1`, the AC50 under setting [1] was 39.8 µM [falling, single point].

For the molecule `Cc1cc(C)nc(NC(=NCCc2c[nH]c3ccccc23)NC(=O)c2ccco2)n1`, the AC50 under setting [1] was 7.94 µM [falling, full curve].

For the molecule `Cc1ccc(-c2cc(C(=O)N(Cc3ccccc3)Cc3ccco3)no2)cc1F`, the concentration at half-maximal activity (AC50) under setting [1] was 39.8 µM [falling, single point].

Consider `O=C(COc1ccc(S(=O)(=O)NC2CCCCC2)cc1)N1CCN(c2ccc(F)cc2)CC1`, for which, under setting [1], the AC50 is 15.8 µM [falling, partial curve].

Take `COc1ccccc1C(=O)Nc1nnc(S(=O)(=O)N2CCCCCC2)s1`: the half-maximal activity concentration (AC50) under setting [1] was 3.16 µM [rising, partial curve].

With `CCOc1ccc(NC(=O)CSC2=Nc3ccccc3C3=NC(CC(=O)NCc4ccc5c(c4)OCO5)C(=O)N23)cc1` (stereo not given), the AC50 under setting [1] was 10 µM [falling, partial curve].

With `COc1ccc(-c2nc3ccccc3n2Cc2ccc(Cl)cc2)cc1`, under setting [1], the concentration at half-maximal activity (AC50) was 15.8 µM [falling, partial curve].

In the case of `O=C(OCc1cc(=O)n2c3c(sc2n1)CCCC3)c1cccc(NC(=O)c2ccccc2F)c1`, under setting [1], the half-maximal activity concentration (AC50) was 0.794 µM [falling, full curve].

As for `CC1CCCCN1CC(=O)N1CCCc2c1c(=O)oc1ccc(OCc3ccccc3)cc21` (stereo not given), under setting [1], the AC50 is 31.6 µM [falling, single point].

As to `Cc1cc(Br)ccc1NC(=O)C1(S(=O)(=O)c2ccc(Cl)cc2)CC1`, the concentration at half-maximal activity (AC50) under setting [1] was 39.8 µM [falling, single point].

Regarding `COc1ccccc1C(=O)Nc1ccc(-c2nc3ccccc3s2)c(C)c1`, the AC50 under setting [1] is 3.98 µM [rising, partial curve].

Take `CCC(C)(C)n1nnnc1CN1CCN(c2nc3cc(OC)ccc3cc2C#N)CC1`: under setting [1], the half-maximal activity concentration (AC50) was 10 µM [falling, partial curve].
